Reference: US20170016892A1, “LOCALIZED SURFACE PLASMON RESONANCE SENSING OF HUMAN PERFORMANCE BIOMARKERS USING SHORT PEPTIDE RECOGNITION ELEMENTS ON OPTICALLY ACTIVE METAL NANOSTRUCTURES” (Government of the United States as Represented by the …, priority 2015, published 2017)

Assay: distance-dependent refractive index sensitivity of AuNR nanotransducers (layer-by-layer polyelectrolyte assembly)

peptide-AuNR: Troponin I binding peptide with C-terminal cysteine (Seq. ID No. 2) conjugated to gold nanorods via Au—S linkage, adsorbed on filter paper (FYSHSFHENWPSC)
distance-dependent refractive index sensitivity parameter (σ) (at the dry-state thickness of the recognition layer): about 6.67 nm/nm
local refractive index sensitivity, higher than with antibody-based recognition elements (peptide versus antibody recognition elements): ~50%
